Some entries share one result that the patent states for a list of compounds.
The molecules below were run against PKCθ (Homo sapiens, UniProt Q04759) (assay: PKCθ Homogeneous Time Resolved Fluorescent (HTRF) Kinase Assay). Details: read-out: activity in the PKCθ HTRF assay; ATP 25 μM, PKCθ 100 pM, 60 min.

Chains of the proteins cited; added tags and fusions are not shown. Residues count along the entry.
UniProt Q04759, 380-634 limits assumed: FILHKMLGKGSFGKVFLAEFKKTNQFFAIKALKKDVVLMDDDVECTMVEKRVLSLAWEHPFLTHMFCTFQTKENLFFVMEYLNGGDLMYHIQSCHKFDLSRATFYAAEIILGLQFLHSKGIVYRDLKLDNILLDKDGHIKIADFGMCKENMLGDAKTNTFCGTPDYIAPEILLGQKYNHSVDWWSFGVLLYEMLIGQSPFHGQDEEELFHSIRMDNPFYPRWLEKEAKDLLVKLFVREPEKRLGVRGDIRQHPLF

IC50, < 50 µM:
C[C@H](Nc1cc(-c2csc(N3CC4CC3CN4)n2)ccn1)c1ccccc1 (stereo partly drawn) [Example 97, 4-(2-(2,5-diazabicyclo[2.2.1]hept-2-yl)-1,3-thiazol-4-yl)-N-((1S)-1-phenylethyl)-2-pyridinamine]
C[C@H](O)C(=O)N1CC2CC1CN2c1nc(-c2ccnc(N[C@@H](C)c3ccccc3)c2)cc2nccn12 (stereo partly drawn) [Example 82, (2S)-1-oxo-1-(5-(7-(2-(((1S)-1-phenylethyl)amino)-4-pyridinyl)imidazo[1,2-c]pyrimidin-5-yl)-2,5-diazabicyclo[2.2.1]hept-2-yl)-2-propanol]
C[C@H](Nc1cc(-c2cc3nccn3c(N3CC4CC3CN4CCCOc3ccccc3)n2)ccn1)c1ccccc1 (stereo partly drawn) [Example 129, N-((1S)-1-phenylethyl)-4-(5-(5-(3-(phenyloxy)propyl)-2,5-diazabicyclo[2.2.1]hept-2-yl)imidazo[1,2-c]pyrimidin-7-yl)-2-pyridinamine]
CN(Cc1ccccc1)c1cc(-n2nc(N3C[C@@H]4C[C@H]3CN4)c3ccc(F)cc32)ccn1 [Example 165, 4-(3-((1S,4S)-2,5-diazabicyclo[2.2.1]hept-2-yl)-6-fluoro-1H-indazol-1-yl)-N-methyl-N-(phenylmethyl)-2-pyridinamine]
CC(C)C(C)Nc1cc(-c2cc3nccn3c(N3C[C@@H]4C[C@H]3CN4C(C)C)n2)ccn1 (stereo partly drawn) [Example 9, (1,2-Dimethyl-propyl)-{4-[5-(5-isopropyl-(1S,4S)-2,5-diaza-bicyclo[2.2.1]hept-2-yl)-imidazo[1,2-c]pyrimidin-7-yl]-pyridin-2-yl}-amine]
C[C@H](Nc1cc(-c2cc3nccn3c(N3CC4CC3CN4)n2)ccn1)c1cccc2ccccc12 (stereo partly drawn) [Example 87, 4-(5-(2,5-diazabicyclo[2.2.1]hept-2-yl)imidazo[1,2-c]pyrimidin-7-yl)-N-((1S)-1-(1-naphthalenyl)ethyl)-2-pyridinamine]
Cc1ccc2c(N3C[C@@H]4C[C@H]3CN4C(C)C)nn(-c3ccnc(N[C@H](C)c4ccccc4)c3)c2c1 [Example 170, 4-(6-methyl-3-((1S,4S)-5-(1-methylethyl)-2,5-diazabicyclo[2.2.1]hept-2-yl)-1H-indazol-1-yl)-N-((1R)-1-phenylethyl)-2-pyridinamine]
CC(C)N1C[C@@H]2C[C@H]1CN2c1nc(-c2ccnc(N[C@@H](C)c3ccccc3)c2)cc2ncnn12 [Example 16, (S)-{4-[5-(5-Isopropyl-(1S,4S)-2,5-diaza-bicyclo[2.2.1]hept-2-yl)-[1,2,4]triazolo[1,5-c]pyrimidin-7-yl]-pyridin-2-yl}-(1-phenyl-ethyl)-amine]
C[C@H](Nc1cc(-c2cc(=O)n(C)c(N3CC4CC3CN4C)n2)ccn1)c1ccc(F)cc1 (stereo partly drawn) [Example 72, 6-(2-(((1S)-1-(4-fluorophenyl)ethyl)amino)-4-pyridinyl)-3-methyl-2-(5-methyl-2,5-diazabicyclo[2.2.1]hept-2-yl)-4(3H)-pyrimidinone]
C[C@H](Nc1cc(-n2nc(N3C[C@@H]4C[C@H]3CN4)c3ccc(NS(C)(=O)=O)cc32)ccn1)c1ccccc1 [Example 173, N-(3-((1S,4S)-2,5-diazabicyclo[2.2.1]hept-2-yl)-1-(2-(((1S)-1-phenylethyl)amino)-4-pyridinyl)-1H-indazol-6-yl)methanesulfonamide]
C[C@H](Nc1cc(-c2nc(N3C[C@@H]4C[C@H]3CN4C)c3ccccc3n2)ccn1)c1ccccc1 [Example 63, (S)-{4-[4-(5-Methyl-(1S,4S)-2,5-diaza-bicyclo[2.2.1]hept-2-yl)-quinazolin-2-yl]-pyridin-2-yl}-(1-phenyl-ethyl)-amine]
CC(C)(C)OC(=O)N1C[C@@H]2C[C@H]1CN2c1nn(-c2ccnc(NCc3ccccc3)c2)c2cc(C(F)(F)F)ccc12 [Example 176, 1,1-dimethylethyl (1S,4S)-5-(1-(2-((phenylmethyl)amino)-4-pyridinyl)-6-(trifluoromethyl)-1H-indazol-3-yl)-2,5-diazabicyclo[2.2.1]heptane-2-carboxylate]
CN(Cc1ccccc1)c1cc(-c2cc3nccn3c(N3CC4CC3CN4)n2)ccn1 (centres unmarked) [Example 113, 4-(5-(2,5-diazabicyclo[2.2.1]hept-2-yl)imidazo[1,2-c]pyrimidin-7-yl)-N-methyl-N-(phenylmethyl)-2-pyridinamine]
C[C@H](Nc1cc(-n2nc(N3CC4CC3CN4)c3ccccc32)ccn1)c1ccccc1 (stereo partly drawn) [Example 101, 4-(3-(2,5-diazabicyclo[2.2.1]hept-2-yl)-1H-indazol-1-yl)-N-((1S)-1-phenylethyl)-2-pyridinamine]
CC(C)CN1C[C@@H]2C[C@H]1CN2c1nc(-c2ccnc(N[C@@H](C)c3ccccc3)c2)cc2nccn12 [Example 33, (S)-{4-[5-(5-Isobutyl-(1S ,4S)-2,5-diaza-bicyclo[2.2.1]hept-2-yl)-imidazo[1,2-c]pyrimidin-7-yl]-pyridin-2-yl}-(1-phenyl-ethyl)-amine]
CC(O)CN1CC2CC1CN2c1nc(-c2ccnc(N[C@@H](C)c3ccccc3)c2)cc2nccn12 (stereo partly drawn) [Example 105, 1-(5-(7-(2-(((1S)-1-phenylethyl)amino)-4-pyridinyl)imidazo[1,2-c]pyrimidin-5-yl)-2,5-diazabicyclo[2.2.1]hept-2-yl)-2-propanol]
C[C@H](Nc1cc(-c2cc3nccn3c(N3CC4CC3CN4)n2)ccn1)C1CCCCC1 (stereo partly drawn) [Example 83, N-((1S)-1-cyclohexylethyl)-4-(5-(2,5-diazabicyclo[2.2.1]hept-2-yl)imidazo[1,2-c]pyrimidin-7-yl)-2-pyridinamine]
Fc1ccc2c(N3CC4CC3CN4)nn(-c3ccnc(NCc4ccccc4)c3)c2c1 (centres unmarked) [Example 148, 4-(3-(2,5-diazabicyclo[2.2.1]hept-2-yl)-6-fluoro-1H-indazol-1-yl)-N-(phenylmethyl)-2-pyridinamine]
C[C@H](Nc1cc(-c2cc3nccn3c(N3CC4CC3CN4C3CCCC3)n2)ccn1)c1ccccc1 (stereo partly drawn) [Example 104, 4-(5-(5-cyclopentyl-2,5-diazabicyclo[2.2.1]hept-2-yl)imidazo[1,2-c]pyrimidin-7-yl)-N-((1S)-1-phenylethyl)-2-pyridinamine]
C[C@H](Nc1cc(-c2cc3nccn3c(N3CC4CC3CN4)n2)ccn1)c1ccc(F)cc1 (stereo partly drawn) [Example 100, 4-(5-(2,5-diazabicyclo[2.2.1]hept-2-yl)imidazo[1,2-c]pyrimidin-7-yl)-N-((1S)-1-(4-fluorophenyl)ethyl)-2-pyridinamine]
C[C@@H](Nc1cc(-c2cc3nccn3c(N3CC4CC3CN4)n2)ccn1)C1CC1 (stereo partly drawn) [Example 85, N-((1R)-1-cyclopropylethyl)-4-(5-(2,5-diazabicyclo[2.2.1]hept-2-yl)imidazo[1,2-c]pyrimidin-7-yl)-2-pyridinamine]
CC(C)N1C[C@@H]2C[C@H]1CN2c1nc(-c2ccnc(N[C@@H](C)c3ccccc3)c2)cc2nccn12 [Example 4, (S)-{4-[5-(5-Isopropyl-(1S,4S)-2,5-diaza-bicyclo[2.2.1]hept-2-yl)-imidazo[1,2-c]pyrimidin-7-yl]-pyridin-2-yl}-(1-phenyl-ethyl)-amine]
CC(C)N1C[C@@H]2C[C@H]1CN2c1nc(-c2ccnc(N[C@H](C)c3ccccc3)c2)cc2nccn12 [Example 7, (R)-{4-[5-(5-Isopropyl-(1S,4S)-2,5-diaza-bicyclo[2.2.1]hept-2-yl)-imidazo[1,2-c]pyrimidin-7-yl]-pyridin-2-yl}-(1-phenyl-ethyl)-amine]
CC(C)(C)OC(=O)N1CC2CC1CN2c1nc(-c2ccnc(N)c2)cc2nccn12 (centres unmarked) [Example 78, 1,1-dimethylethyl 5-(7-(2-amino-4-pyridinyl)imidazo[1,2-c]pyrimidin-5-yl)-2,5-diazabicyclo[2.2.1]heptane-2-carboxylate]
Fc1ccc2c(N3C[C@@H]4C[C@H]3CN4)nn(-c3ccnc(NCc4ccccc4)c3)c2c1 [Example 68, Benzyl-{4-[3-((1S,4S)-2,5-diaza-bicyclo[2.2.1]hept-2-yl)-6-fluoro-indazol-1-yl]-pyridin-2-yl}-amine]
C[C@H](Nc1cc(-n2nc(N3C[C@@H]4C[C@H]3CN4)c3ccc(Cl)cc32)ccn1)c1ccccc1 [Example 164, 4-(6-chloro-3-((1S,4S)-2,5-diazabicyclo[2.2.1]hept-2-yl)-1H-indazol-1-yl)-N-((1S)-1-phenylethyl)-2-pyridinamine]
C[C@H](Nc1cc(-n2nc(N3CC4CC3CN4)c3ccc([N+](=O)[O-])cc32)ccn1)c1ccccc1 (stereo partly drawn) [Example 162, 4-(3-(2,5-diazabicyclo[2.2.1]hept-2-yl)-6-nitro-1H-indazol-1-yl)-N-((1S)-1-phenylethyl)-2-pyridinamine]
CC(C)N1C[C@@H]2C[C@H]1CN2c1cc(-c2ccnc(N[C@@H](C)c3ccccc3)c2)ccn1 [Example 20, (S)-[2′-(5-Isopropyl-(1S,4S)-2,5-diaza-bicyclo[2.2.1]hept-2-yl)-[4,4′]bipyridinyl-2-yl]-(1-phenyl-ethyl)-amine]
C[C@H](Nc1cc(-c2cc(N3C[C@@H]4C[C@H]3CN4)c3ccccc3n2)ccn1)c1ccccc1 [Example 51, (S)-{4-[4-((1S,4S)-2,5-Diaza-bicyclo[2.2.1]hept-2-yl)-quinolin-2-yl]-pyridin-2-yl}-(1-phenyl-ethyl)-amine]
CCC(C)N1CC2CC1CN2c1nc(-c2ccnc(N[C@@H](C)c3ccccc3)c2)cc2nccn12 (stereo partly drawn) [Example 29, (S)-{4-[5-(5-sec-Butyl-(1S,4S)-2,5-diaza-bicyclo[2.2.1]hept-2-yl)-imidazo[1,2c]pyrimidin-7-yl]-pyridin-2-yl}-(1-phenyl-ethyl)-amine]
C[C@H](Nc1cc(-c2ccnc(N3C[C@@H]4C[C@H]3CN4)c2)ccn1)c1ccccc1 [Example 19, (S)-[2′-((1S,4S)-2,5-Diaza-bicyclo[2.2.1]hept-2-yl)-[4,4′]bipyridinyl-2-yl]-(1-phenyl-ethyl)-amine]
c1ccc(CNc2cc(-c3cc4nccn4c(N4C[C@@H]5C[C@H]4CN5)n3)ccn2)cc1 [Example 55, Benzyl-(4-[5-((1S,4S)-2-5-diaza-bicyclo[2,2,1]hept-2-yl)-imidazo[1,2-c]pyrimidin-7-yl]-pyridin-2-yl)-amine]
